Measurements from article PMC10470473.
No constants are given. Whether binding was seen depends on the method and setting. In cells and extracts the contact can be indirect. Some results given as binding are weak or reduced against the parent protein; the word gives no strength. For some of these results: Sequences can lack the tags named with a protein.

Sequences of proteins named here, by UniProt entry; tags and fusion partners are left off.
UniProt Q13547: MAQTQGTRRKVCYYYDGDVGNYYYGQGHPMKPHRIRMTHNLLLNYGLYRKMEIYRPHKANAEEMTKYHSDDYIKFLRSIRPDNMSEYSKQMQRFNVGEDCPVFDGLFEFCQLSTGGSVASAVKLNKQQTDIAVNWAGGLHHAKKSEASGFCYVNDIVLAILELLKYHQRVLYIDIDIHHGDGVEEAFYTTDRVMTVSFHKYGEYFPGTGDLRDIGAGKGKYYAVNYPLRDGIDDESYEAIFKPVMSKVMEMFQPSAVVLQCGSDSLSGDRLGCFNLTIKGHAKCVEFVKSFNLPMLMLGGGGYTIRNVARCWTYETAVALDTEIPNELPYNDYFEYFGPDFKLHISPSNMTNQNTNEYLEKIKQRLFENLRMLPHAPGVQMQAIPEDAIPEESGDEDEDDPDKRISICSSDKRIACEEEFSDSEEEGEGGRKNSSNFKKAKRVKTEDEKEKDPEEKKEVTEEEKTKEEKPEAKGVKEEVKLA
UniProt Q92769: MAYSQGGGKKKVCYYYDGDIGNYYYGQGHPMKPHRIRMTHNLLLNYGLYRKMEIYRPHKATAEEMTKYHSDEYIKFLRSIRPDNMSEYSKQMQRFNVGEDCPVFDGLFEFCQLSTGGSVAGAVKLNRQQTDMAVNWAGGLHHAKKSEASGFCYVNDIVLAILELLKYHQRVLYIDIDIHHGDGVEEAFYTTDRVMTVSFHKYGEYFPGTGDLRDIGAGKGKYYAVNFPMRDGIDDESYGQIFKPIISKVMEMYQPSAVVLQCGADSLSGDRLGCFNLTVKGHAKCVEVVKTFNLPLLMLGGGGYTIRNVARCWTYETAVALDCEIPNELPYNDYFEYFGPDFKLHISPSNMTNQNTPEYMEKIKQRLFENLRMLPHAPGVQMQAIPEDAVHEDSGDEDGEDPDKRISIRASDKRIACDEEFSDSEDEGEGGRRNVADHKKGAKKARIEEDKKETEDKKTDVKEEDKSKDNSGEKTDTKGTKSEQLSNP

Key:
Test in all cases: co-IP; HEK293 cells cotransfected with V5-EHMT1 WT or mutants (doxycycline for 3 days) and FLAG-LSD1; Triton lysis buffer, brief sonication; anti-V5- or anti-FLAG-conjugated beads; immunoblotting
[1] = target: V5-tagged EHMT1-K450/451R (UniProt Q9H9B1)
V5-tagged EHMT1-K450R = V5-tagged EHMT1-K450R (UniProt Q9H9B1)
V5-tagged EHMT1-K451R = V5-tagged EHMT1-K451R (UniProt Q9H9B1)
[2] = target: V5-tagged EHMT1 wild type (euchromatin histone methyltransferase 1) (UniProt Q9H9B1)
[3] = target: T1, V5-tagged EHMT1 wild type (euchromatin histone methyltransferase 1), Q9H9B1; settings: remark: other sources report otherwise
T1 chain: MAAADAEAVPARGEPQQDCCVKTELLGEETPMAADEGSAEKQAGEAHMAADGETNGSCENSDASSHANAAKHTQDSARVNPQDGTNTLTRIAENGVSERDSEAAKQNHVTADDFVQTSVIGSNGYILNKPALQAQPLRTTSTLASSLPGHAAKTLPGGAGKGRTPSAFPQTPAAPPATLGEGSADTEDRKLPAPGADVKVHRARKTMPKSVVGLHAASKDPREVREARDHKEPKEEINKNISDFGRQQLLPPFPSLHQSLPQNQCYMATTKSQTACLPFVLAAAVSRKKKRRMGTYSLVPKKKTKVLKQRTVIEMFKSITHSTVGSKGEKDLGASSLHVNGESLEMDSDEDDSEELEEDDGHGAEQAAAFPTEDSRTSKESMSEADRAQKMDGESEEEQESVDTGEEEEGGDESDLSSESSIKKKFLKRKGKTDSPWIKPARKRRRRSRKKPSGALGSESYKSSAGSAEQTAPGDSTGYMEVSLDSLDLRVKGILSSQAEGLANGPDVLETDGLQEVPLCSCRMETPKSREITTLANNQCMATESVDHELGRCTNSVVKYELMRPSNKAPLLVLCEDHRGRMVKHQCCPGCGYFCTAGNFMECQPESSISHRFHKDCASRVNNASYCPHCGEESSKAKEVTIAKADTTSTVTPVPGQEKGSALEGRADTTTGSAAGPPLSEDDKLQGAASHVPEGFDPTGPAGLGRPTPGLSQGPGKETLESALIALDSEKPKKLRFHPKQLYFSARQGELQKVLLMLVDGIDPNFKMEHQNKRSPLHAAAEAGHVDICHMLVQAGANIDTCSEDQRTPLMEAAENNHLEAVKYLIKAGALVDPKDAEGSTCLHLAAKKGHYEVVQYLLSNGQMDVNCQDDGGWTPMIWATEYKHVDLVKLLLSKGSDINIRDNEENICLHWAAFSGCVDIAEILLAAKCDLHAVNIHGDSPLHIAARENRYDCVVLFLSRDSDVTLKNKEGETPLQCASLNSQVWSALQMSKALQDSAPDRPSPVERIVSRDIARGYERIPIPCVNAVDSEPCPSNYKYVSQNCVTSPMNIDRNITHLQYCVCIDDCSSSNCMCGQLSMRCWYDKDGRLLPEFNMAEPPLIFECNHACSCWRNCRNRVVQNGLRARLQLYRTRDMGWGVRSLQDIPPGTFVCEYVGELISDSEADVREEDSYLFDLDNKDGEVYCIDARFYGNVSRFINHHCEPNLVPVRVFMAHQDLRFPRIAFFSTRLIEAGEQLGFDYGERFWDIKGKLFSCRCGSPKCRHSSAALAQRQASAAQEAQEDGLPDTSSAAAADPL

Measured: binding

EHMT2 (euchromatin histone methyltransferase 2) (from UniProt Q96KQ7 1-1210)
binds: [1] | V5-tagged EHMT1-K450R | V5-tagged EHMT1-K451R

HDAC1 (from UniProt Q13547 1-482)
not listed: [3]
binds: all other assays above

HDAC2 (from UniProt Q92769 1-488)
not listed: [3]
binds: all other assays above

B1: EHMT2 (euchromatin histone methyltransferase 2), Q96KQ7 1-1210 (protein)
chain: MAAAAGAAAAAAAEGEAPAEMGALLLEKETRGATERVHGSLGDTPRSEETLPKATPDSLEPAGPSSPASVTVTVGDEGADTPVGATPLIGDESENLEGDGDLRGGRILLGHATKSFPSSPSKGGSCPSRAKMSMTGAGKSPPSVQSLAMRLLSMPGAQGAAAAGSEPPPATTSPEGQPKVHRARKTMSKPGNGQPPVPEKRPPEIQHFRMSDDVHSLGKVTSDLAKRRKLNSGGGLSEELGSARRSGEVTLTKGDPGSLEEWETVVGDDFSLYYDSYSVDERVDSDSKSEVEALTEQLSEEEEEEEEEEEEEEEEEEEEEEEEDEESGNQSDRSGSSGRRKAKKKWRKDSPWVKPSRKRRKREPPRAKEPRGVNGVGSSGPSEYMEVPLGSLELPSEGTLSPNHAGVSNDTSSLETERGFEELPLCSCRMEAPKIDRISERAGHKCMATESVDGELSGCNAAILKRETMRPSSRVALMVLCETHRARMVKHHCCPGCGYFCTAGTFLECHPDFRVAHRFHKACVSQLNGMVFCPHCGEDASEAQEVTIPRGDGVTPPAGTAAPAPPPLSQDVPGRADTSQPSARMRGHGEPRRPPCDPLADTIDSSGPSLTLPNGGCLSAVGLPLGPGREALEKALVIQESERRKKLRFHPRQLYLSVKQGELQKVILMLLDNLDPNFQSDQQSKRTPLHAAAQKGSVEICHVLLQAGANINAVDKQQRTPLMEAVVNNHLEVARYMVQRGGCVYSKEEDGSTCLHHAAKIGNLEMVSLLLSTGQVDVNAQDSGGWTPIIWAAEHKHIEVIRMLLTRGADVTLTDNEENICLHWASFTGSAAIAEVLLNARCDLHAVNYHGDTPLHIAARESYHDCVLLFLSRGANPELRNKEGDTAWDLTPERSDVWFALQLNRKLRLGVGNRAIRTEKIICRDVARGYENVPIPCVNGVDGEPCPEDYKYISENCETSTMNIDRNITHLQHCTCVDDCSSSNCLCGQLSIRCWYDKDGRLLQEFNKIEPPLIFECNQACSCWRNCKNRVVQSGIKVRLQLYRTAKMGWGVRALQTIPQGTFICEYVGELISDAEADVREDDSYLFDLDNKDGEVYCIDARYYGNISRFINHLCDPNIIPVRVFMLHQDLRFPRIAFFSSRDIRTGEELGFDYGDRFWDIKSKYFTCQCGSEKCKHSAEAIALEQSRLARLDPHPELLPELGSLPPVNT
binds: [3]

B2: REST (protein, UniProt Q13127 1-1097)
chain: MATQVMGQSSGGGGLFTSSGNIGMALPNDMYDLHDLSKAELAAPQLIMLANVALTGEVNGSCCDYLVGEERQMAELMPVGDNNFSDSEEGEGLEESADIKGEPHGLENMELRSLELSVVEPQPVFEASGAPDIYSSNKDLPPETPGAEDKGKSSKTKPFRCKPCQYEAESEEQFVHHIRVHSAKKFFVEESAEKQAKARESGSSTAEEGDFSKGPIRCDRCGYNTNRYDHYTAHLKHHTRAGDNERVYKCIICTYTTVSEYHWRKHLRNHFPRKVYTCGKCNYFSDRKNNYVQHVRTHTGERPYKCELCPYSSSQKTHLTRHMRTHSGEKPFKCDQCSYVASNQHEVTRHARQVHNGPKPLNCPHCDYKTADRSNFKKHVELHVNPRQFNCPVCDYAASKKCNLQYHFKSKHPTCPNKTMDVSKVKLKKTKKREADLPDNITNEKTEIEQTKIKGDVAGKKNEKSVKAEKRDVSKEKKPSNNVSVIQVTTRTRKSVTEVKEMDVHTGSNSEKFSKTKKSKRKLEVDSHSLHGPVNDEESSTKKKKKVESKSKNNSQEVPKGDSKVEENKKQNTCMKKSTKKKTLKNKSSKKSSKPPQKEPVEKGSAQMDPPQMGPAPTEAVQKGPVQVEPPPPMEHAQMEGAQIRPAPDEPVQMEVVQEGPAQKELLPPVEPAQMVGAQIVLAHMELPPPMETAQTEVAQMGPAPMEPAQMEVAQVESAPMQVVQKEPVQMELSPPMEVVQKEPVQIELSPPMEVVQKEPVKIELSPPIEVVQKEPVQMELSPPMGVVQKEPAQREPPPPREPPLHMEPISKKPPLRKDKKEKSNMQSERARKEQVLIEVGLVPVKDSWLLKESVSTEDLSPPSPPLPKENLREEASGDQKLLNTGEGNKEAPLQKVGAEEADESLPGLAANINESTHISSSGQNLNTPEGETLNGKHQTDSIVCEMKMDTDQNTRENLTGINSTVEEPVSPMLPPSAVEEREAVSKTALASPPATMAANESQEIDEDEGIHSHEGSDLSDNMSEGSDDSGLHGARPVPQESSRKNAKEALAVKAAKGDFVCIFCDRSFRKGKDYSKHLNRHLVNVYYLEEAAQGQE
not listed: [3]
binds: all other assays above
